In patent US20240277806A1:
No constants are given. Whether binding was seen depends on the method and setting. Some binding calls cover weakened binding; strength is not graded here.

By UniProt entry, the sequences of proteins in these tests, tags left out. Where a name states a change or a piece, a line headed by the entry shows the natural chain unless it says otherwise. Residues count along the entry.
UniProt P22004, residues 382-513: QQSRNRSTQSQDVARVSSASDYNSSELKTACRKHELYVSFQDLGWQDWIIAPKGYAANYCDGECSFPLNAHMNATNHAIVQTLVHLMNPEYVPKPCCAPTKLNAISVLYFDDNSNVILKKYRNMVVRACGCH
UniProt P27037: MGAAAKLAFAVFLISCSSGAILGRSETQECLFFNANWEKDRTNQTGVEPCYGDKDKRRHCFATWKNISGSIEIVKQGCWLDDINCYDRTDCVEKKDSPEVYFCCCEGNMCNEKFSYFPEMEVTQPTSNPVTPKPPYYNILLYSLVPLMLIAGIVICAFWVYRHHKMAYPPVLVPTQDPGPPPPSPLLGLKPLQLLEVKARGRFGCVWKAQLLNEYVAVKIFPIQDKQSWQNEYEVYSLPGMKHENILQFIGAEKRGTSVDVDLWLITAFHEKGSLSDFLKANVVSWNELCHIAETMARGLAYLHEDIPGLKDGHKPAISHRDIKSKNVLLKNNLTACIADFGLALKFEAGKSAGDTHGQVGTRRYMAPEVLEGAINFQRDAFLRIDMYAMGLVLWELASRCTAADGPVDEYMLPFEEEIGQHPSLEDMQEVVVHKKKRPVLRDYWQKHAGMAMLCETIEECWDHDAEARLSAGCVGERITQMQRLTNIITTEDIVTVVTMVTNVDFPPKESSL

How the values were obtained:
[1] = target: T1, GDF11 (UniProt O95390); test: SPR (Biacore), GDF11 amine-coupled to CM5 chip, ActRIIA-mFc as analyte
T1 sequence (looked up): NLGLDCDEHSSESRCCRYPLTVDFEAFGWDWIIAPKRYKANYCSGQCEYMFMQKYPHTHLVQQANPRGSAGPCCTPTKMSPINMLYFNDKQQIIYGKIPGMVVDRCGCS

[2] = target: T2, BMP10 (UniProt O95393); test: similar binding assay (SPR, Biacore)
T2 sequence (looked up): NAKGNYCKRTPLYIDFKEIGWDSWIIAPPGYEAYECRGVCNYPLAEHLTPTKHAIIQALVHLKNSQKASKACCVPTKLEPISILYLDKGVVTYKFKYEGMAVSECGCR

[3] = target: BMP6 (UniProt P22004); test: similar binding assay (SPR, Biacore)
[4] = target: T3, GDF8 (UniProt O14793); test: similar binding assay (SPR, Biacore)
T3 sequence (looked up): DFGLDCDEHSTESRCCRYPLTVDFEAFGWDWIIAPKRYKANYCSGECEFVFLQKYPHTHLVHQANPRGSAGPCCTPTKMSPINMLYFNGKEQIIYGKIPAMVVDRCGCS

[5] = target: T4, activin B (UniProt P09529); test: similar binding assay (SPR, Biacore)
T4 sequence (looked up): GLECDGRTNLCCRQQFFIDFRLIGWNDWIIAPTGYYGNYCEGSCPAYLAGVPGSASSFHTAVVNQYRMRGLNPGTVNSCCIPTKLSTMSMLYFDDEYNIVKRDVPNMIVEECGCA

binding [1]: binds
binding [2]: binds
binding [3]: binds
binding [4]: binds
binding [5]: binds
Substance: ActRIIA-mFc (from UniProt P27037 21-135) (Fc fusion)
